Results as given in PubChem BioAssay AID1117319 (Southern Research Institute, 2015).
In all, about 260,000 compounds went through this assay and about 1,500 (0.58%) were called active. Inconclusive results, whose numbers are uncertain, are shown with a selection of clear calls.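 How the source made its calls: active means inhibition above a set limit at one or more doses, reproduced on every date tested; inconclusive means results disagree between test dates, or hit never tested in dose response; inactive means the rest.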

The chains behind the UniProt entries cited, without tags or fusion partners. Where a name states a change or a piece, a line headed by the entry shows the natural chain unless it says otherwise.
UniProt P69720: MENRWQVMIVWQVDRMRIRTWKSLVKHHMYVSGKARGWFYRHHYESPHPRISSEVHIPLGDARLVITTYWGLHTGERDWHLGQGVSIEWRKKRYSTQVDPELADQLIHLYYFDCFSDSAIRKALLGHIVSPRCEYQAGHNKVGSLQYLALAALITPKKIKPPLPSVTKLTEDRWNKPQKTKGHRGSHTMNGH
UniProt P69721: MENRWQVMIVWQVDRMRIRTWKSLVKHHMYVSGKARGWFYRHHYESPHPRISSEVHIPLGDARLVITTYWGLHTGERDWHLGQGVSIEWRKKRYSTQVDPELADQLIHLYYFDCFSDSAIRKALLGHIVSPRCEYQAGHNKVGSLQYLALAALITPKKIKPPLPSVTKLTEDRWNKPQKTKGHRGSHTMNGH
UniProt P69722: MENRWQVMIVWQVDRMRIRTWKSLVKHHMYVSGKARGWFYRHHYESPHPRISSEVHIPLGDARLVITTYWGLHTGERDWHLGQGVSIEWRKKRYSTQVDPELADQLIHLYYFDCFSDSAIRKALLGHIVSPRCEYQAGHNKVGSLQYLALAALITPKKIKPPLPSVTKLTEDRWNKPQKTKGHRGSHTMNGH
UniProt P69723: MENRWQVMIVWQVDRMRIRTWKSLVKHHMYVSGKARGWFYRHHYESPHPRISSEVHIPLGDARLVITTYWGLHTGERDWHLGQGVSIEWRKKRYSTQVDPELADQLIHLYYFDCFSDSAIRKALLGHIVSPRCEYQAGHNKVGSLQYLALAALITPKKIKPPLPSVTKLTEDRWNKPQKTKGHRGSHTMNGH
UniProt Q9HC16: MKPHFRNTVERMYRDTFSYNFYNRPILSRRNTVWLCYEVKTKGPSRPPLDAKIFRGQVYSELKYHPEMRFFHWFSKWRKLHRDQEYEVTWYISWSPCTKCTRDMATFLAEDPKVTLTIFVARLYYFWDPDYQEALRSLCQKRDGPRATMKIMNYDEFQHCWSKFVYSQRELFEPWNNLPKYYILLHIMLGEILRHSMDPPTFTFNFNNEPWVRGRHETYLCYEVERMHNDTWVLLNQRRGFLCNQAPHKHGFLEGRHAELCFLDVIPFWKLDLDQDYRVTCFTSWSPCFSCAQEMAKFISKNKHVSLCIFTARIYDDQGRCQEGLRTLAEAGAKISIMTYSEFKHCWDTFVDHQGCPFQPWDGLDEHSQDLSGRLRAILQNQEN

The molecules below were run against Virion infectivity factor (Human immunodeficiency virus type 1 group M subtype B (isolate BH10)) + Virion infectivity factor (Human immunodeficiency virus type 1 group M subtype B (isolate BRU/LAI)) + Virion infectivity factor (Human immunodeficiency virus type 1 group M subtype B (isolate PCV12)) + Virion infectivity factor (Human immunodeficiency virus type 1 group M subtype B (isolate HXB2)) + DNA dC->dU-editing enzyme APOBEC-3G (Homo sapiens) (UniProt P69720+P69721+P69722+P69723+Q9HC16) (assay: inhibitors of Vif binding to APOBEC3G peptide, primary screen, biochemical, TR-FRET, GST-Vif 1-94, biotin-A3G peptide, dose response retest (AID 1117319;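 further: Vif residues 1-94 fused to GST binding biotinylated APOBEC3G peptide 110-148; 0% = full assay without inhibitor and 100% = GST in place of GST-Vif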)). Settings: hits give high values.

Structure (SMILES) | inhibition
Oc1cccc(/C=N/NC(=S)Nc2cccnc2)c1O | inconclusive: 62.9%
Cc1cc2c(Nc3ccc(O)cc3)ncnc2s1 | inactive: -0.33%
COc1ccccc1C1/C(=C(/O)c2ccccc2)C(=O)C(=O)N1CC(C)O (stereo not given) | inconclusive: 42.5%
CCCn1c2ccc(C)cc2c2nnc(SCCN3CCOCC3)nc21 | inactive: -4.1%
Cc1ccc(Cl)c(Nc2ccccc2C(=O)O)c1Cl | inconclusive: 40%
O=C(O)/C=C/C(=O)Nc1ccc(OCc2ccccc2)cc1 | inconclusive: 44.7%
CS(=O)(=O)N(CC(=O)Nc1ccc2c(c1)OCCO2)Cc1ccccc1 | inactive: 24.5%
O=C(NCc1ccccc1Cl)C1CCN(S(=O)(=O)N2CCCCC2)CC1 | inconclusive: 33.9%
CC(=O)NCCOc1ccc(C(=O)O)cc1 | inactive: -5.42%
O=C(COc1cc(F)ccc1[N+](=O)[O-])Nc1ccc2c(c1)OCO2 | inactive: -6.99%
COc1cccc(C(=O)OC(C)CN2CCCC2)c1 (stereo not given) | inactive: 2.26%
COc1ccc(CNC(=O)C(NS(=O)(=O)c2ccc3c(c2)CCCN3C(C)=O)C(C)C)cc1 (stereo not given) | inconclusive: 24.3%
O=C(CSc1ccc2ccccc2c1)NCCc1ccc(O)c(O)c1 | inconclusive: 36%
Cc1ccccc1NNC(=O)C(=O)NNc1ccccc1C | inconclusive: 34.5%
Cc1ccc([N+](=O)[O-])cc1S(=O)(=O)NCCc1c(C)[nH]c2ccccc12 | inconclusive: 48.5%
CCCN1CCC(NC(=O)Nc2cccc3ccccc23)CC1 | inconclusive: 43.4%
CCOc1cccc(C2C(C(=O)c3ccc(C)o3)=C(O)C(=O)N2c2nccs2)c1 (stereo not given) | inactive: -6.71%
CCN(c1ccccc1)c1cc(C)nc2nc(C)nn12 | inconclusive: 38.4%
CC(=O)C(Cl)C(=O)Nc1ccccc1 (stereo not given) | inconclusive: 54.7%
NC(=O)C1CCCN(S(=O)(=O)c2ccccc2)C1 (stereo not given) | inconclusive: 45.5%

Structure (SMILES) | inhibition
CC1(C)CC(NS(=O)(=O)c2ccccc2)CC(C)(C)N1 | inactive: 13.5%
O=C(NC(=S)NNC(=O)c1cc2ccccc2cc1O)c1ccco1 | inconclusive: 38.9%
CCCCSc1[nH]c(=O)c(C(=O)OCC)cc1C#N | inconclusive: 49.7%
N=C1/C(=C\c2ccc(SCc3ccccc3)o2)C(=O)N=C2SC=NN12 | inactive: 1.67%
O=C(Cc1cccs1)Nc1ccc(S(=O)(=O)Nc2ncccn2)cc1 | inactive: 26.2%
Cc1cc2oc(=O)cc(CSc3nc(N)cc(N)n3)c2cc1C | inconclusive: 36.5%
CCn1c(SCC(=O)Nc2cccc(C)c2)nc2c(c1=O)SC(C)C2 (stereo not given) | inconclusive: 33.7%
O=C(Nc1cc(S(=O)(=O)N2CCOCC2)ccc1N1CCOCC1)c1ccc(S(=O)(=O)N2CCCCC2)cc1 | inconclusive: 34.2%
CCc1nnc(NC(=O)C(=O)NCCOC(=O)c2ccccc2Cl)s1 | inconclusive: 60%
Cc1ccccc1N=Cc1cccc(O)c1O | inconclusive: 64.5%
COc1ccc(NC2CC(=O)N(CCc3ccccc3)C2=O)cc1 (stereo not given) | inactive: 25.7%
c1ccc(-c2noc(-c3ccno3)n2)nc1 | inconclusive: 57.1%
c1cc(CSc2nnc(-c3ccc4c(c3)OCO4)o2)ccn1 | inconclusive: 60.8%
COc1ccccc1N1CCN(C(=O)CSc2nnc(NC(=O)c3ccco3)s2)CC1 | inconclusive: 31.3%
Cn1cnnc1Sc1ccc(/C=C/C(=O)c2ccc(O)cc2)cc1[N+](=O)[O-] | inconclusive: 35.9%
O=C(O)/C(=C\c1cccc(F)c1)c1ccc(S(=O)(=O)N2CCCC2)s1 | inactive: 18.6%
CCCS(=O)(=O)N1CCC(C(=O)NCc2ccc3c(c2)OCO3)CC1 | inconclusive: 50%
O=C(O)C1Cc2[nH]cnc2C(c2ccccc2O)N1 (stereo not given) | inconclusive: 56.8%
CCn1c(Cc2ccccc2)nnc1SCC(=O)Nc1ccc2c(c1)OCO2 | inconclusive: 42.8%
Cc1ccn2cc(CCNC(=O)C3CCCCC3)nc2c1 | inconclusive: 42.1%

Laid out differently: entries from further up.
Structure (SMILES)	inhibition
Oc1cccc(/C=N/NC(=S)Nc2cccnc2)c1O	inconclusive: 62.9%
Cc1cc2c(Nc3ccc(O)cc3)ncnc2s1	inactive: -0.33%
CS(=O)(=O)N(CC(=O)Nc1ccc2c(c1)OCCO2)Cc1ccccc1	inactive: 24.5%
O=C(NCc1ccccc1Cl)C1CCN(S(=O)(=O)N2CCCCC2)CC1	inconclusive: 33.9%
O=C(COc1cc(F)ccc1[N+](=O)[O-])Nc1ccc2c(c1)OCO2	inactive: -6.99%
COc1ccc(CNC(=O)C(NS(=O)(=O)c2ccc3c(c2)CCCN3C(C)=O)C(C)C)cc1 (stereo not given)	inconclusive: 24.3%
O=C(CSc1ccc2ccccc2c1)NCCc1ccc(O)c(O)c1	inconclusive: 36%
CC(=O)C(Cl)C(=O)Nc1ccccc1 (stereo not given)	inconclusive: 54.7%
NC(=O)C1CCCN(S(=O)(=O)c2ccccc2)C1 (stereo not given)	inconclusive: 45.5%
N=C1/C(=C\c2ccc(SCc3ccccc3)o2)C(=O)N=C2SC=NN12	inactive: 1.67%
CCn1c(SCC(=O)Nc2cccc(C)c2)nc2c(c1=O)SC(C)C2 (stereo not given)	inconclusive: 33.7%
CCc1nnc(NC(=O)C(=O)NCCOC(=O)c2ccccc2Cl)s1	inconclusive: 60%
COc1ccc(NC2CC(=O)N(CCc3ccccc3)C2=O)cc1 (stereo not given)	inactive: 25.7%
COc1ccccc1N1CCN(C(=O)CSc2nnc(NC(=O)c3ccco3)s2)CC1	inconclusive: 31.3%
CCCS(=O)(=O)N1CCC(C(=O)NCc2ccc3c(c2)OCO3)CC1	inconclusive: 50%
O=C(O)C1Cc2[nH]cnc2C(c2ccccc2O)N1 (stereo not given)	inconclusive: 56.8%
Cc1ccn2cc(CCNC(=O)C3CCCCC3)nc2c1	inconclusive: 42.1%

Remaining list, next part.

Structure (SMILES) | inhibition
CCOC(=O)c1cc(C)sc1/N=C/C1C(=O)CCCC1=O | inconclusive: 38.9%
Cc1cc2c(NC(=O)CC(C)(C)CC(=O)O)cccc2nn1 | inconclusive: 47.7%
CCCn1c(NC(=O)CCNC(=O)c2ccccc2Cl)nc2ccccc21 | inconclusive: 55.5%
COc1nccnc1NS(=O)(=O)c1ccc(NS(=O)(=O)c2ccc(NC(C)=O)cc2)cc1 | inconclusive: 37.3%
C/C(=N\Nc1ccc([N+](=O)[O-])cc1)c1cc2ccccc2o1 | inconclusive: 48.5%
CCOC(=O)Cn1nc(C)n(-c2ccc(C(C)C)cc2)c1=O | inconclusive: 37.5%
Cc1cccc(CCNC(=O)CC2C(=O)NCCN2Cc2ccc(F)c(F)c2)n1 (stereo not given) | inconclusive: 48.4%
O=C1C2C3CCCC3=C3CCCC3C2C(=O)N1c1ccc(F)cc1 (stereo not given) | inconclusive: 51.6%
COc1cc2c3nnc(-c4ccc(F)cc4)c-3cn(Cc3cccc(C)c3)c2cc1OC | inconclusive: 33.9%
CCc1ccc(S(=O)(=O)Nc2ccccn2)cc1 | inconclusive: 49.3%
CCC1CCCCN1C(=O)COc1cc(=O)n(C)c2ccccc12 (stereo not given) | inactive: 1.25%
Cc1nnc(SCC(=O)Nc2ccccc2)n1CCc1ccccc1 | inactive: -1.11%
CC(C)NC(=O)CN1CCN(C(=O)CCl)CC1 | inconclusive: 49.4%
CCOn1c(=O)c(-c2ccc(Cl)cc2)[n+]([O-])c2ccccc21 | inconclusive: 40.2%
CC(=O)Nc1cccc(-c2csc(N)n2)c1 | inconclusive: 44.4%
Cc1ccc(C2C3=C(CCCC3=O)Nc3[nH]c(=S)[nH]c(=O)c32)cc1 (stereo not given) | inactive: 15.3%
COc1ccc(CCC(=O)Nc2nc3c(s2)CN(C)CC3)cc1OC | inconclusive: 45.1%
CCCCNC(=O)CC1NCCNC1=O (stereo not given) | inconclusive: 33.8%
CCN1C2=C(C(=O)CCC2)C(c2ccc(O)cc2)C2=C1CCCC2=O | inconclusive: 35.6%
CN(Cc1ccco1)S(=O)(=O)c1nnc(NC(=O)c2cccc(Cl)c2)s1 | inconclusive: 34%
